Results on one molecule are retold here after patent US20140134647A1 (LA JOLLA INSTITUTE FOR ALLERGY AND IMMUNOLOGY, published 2014).

Sequences of proteins named here, by UniProt entry; tags and fusion partners are left off. A change or cut given only in a name is not applied to a line headed by its entry.
UniProt O14763: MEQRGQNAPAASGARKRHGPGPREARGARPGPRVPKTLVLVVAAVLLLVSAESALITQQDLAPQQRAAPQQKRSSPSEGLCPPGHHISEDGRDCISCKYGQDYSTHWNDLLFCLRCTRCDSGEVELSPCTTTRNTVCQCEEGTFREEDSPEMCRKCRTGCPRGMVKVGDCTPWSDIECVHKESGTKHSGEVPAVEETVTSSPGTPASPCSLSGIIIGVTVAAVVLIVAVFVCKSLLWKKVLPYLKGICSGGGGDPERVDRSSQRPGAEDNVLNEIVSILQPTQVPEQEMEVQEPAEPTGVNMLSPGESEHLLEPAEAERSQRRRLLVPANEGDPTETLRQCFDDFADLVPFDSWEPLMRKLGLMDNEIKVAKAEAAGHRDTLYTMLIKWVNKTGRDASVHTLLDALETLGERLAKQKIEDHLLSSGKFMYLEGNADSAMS

The assay has as its target human TRAIL-R2:Fc (extracellular domain of human TRAIL-R2 fused to human IgG constant domain, from 293T cells) (human) (UniProt O14763). In words: binding assay (ELISA-based).

No constants are given. Whether binding was seen depends on the method and setting. Some entries that bind do so weakly or less than the wild type. Sequences can lack the tags named with a protein.

B1: UL141-Fc (UL141 ectodomain fused to the Fc region of human IgG1) (Fc fusion)
chain: DIAEKMWAENYETTSPAPVLVAEGEQVTIPCTVMTHSWPMVSIRARFCRSHDGSDELILDAVKGHRLMNGLQYRLPYATWNFSQLHLGQIFSLTFNVSTDTAGMYECVLRNYSHGLIMQRFVILTQLETLSRPDEPCCTPALGRYSLGDQIWSPTPWRLRNHDCGMYRGFQRNYFYIGRADAEDCWKPACPDEEPDRCWTVIQRYRLPGDCYRSQPHPPKFLPVTPAPPADIDTGMS
For B1, the binding entry was “binds”.
